Assay results from PubChem BioAssay AID624291 (National Center for Advancing Translational Sciences (NCATS), 2012).
The campaign covered roughly 350,000 compounds. About 220 (0.063%) were called active. The shares of active, inactive and inconclusive entries below differ from those in the screen. Calls come from the whole dose curve; as a rule, active = well fitted activation curve with a large enough effect; inconclusive = small, poorly fitted or top-dose-only effect; inactive = no such curve, though single readings can be large or run the other way. A potency beside an inconclusive call is a rough fit, not a confirmed value.

experiment: qHTS for Activators of Integrin-Mediated Alleviation for Muscular Dystrophy; settings: alpha7betagal myoblasts, beta-gal FDG fluorescence, 48 h; activation: at 38.3 µM (top of the series); note: nearly all actives have a fitted effect of over 60% in size;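 for activation: 100% = response of the positive control SU9516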
Procedure, shortened: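 Alpha7betagal+/- myoblasts (passage 13) were plated 16-24 hr, then exposed to compounds (1:260 dilution of DMSO stock) for 48 hours at 37C. After MPER lysis, β-galactosidase reporter activity was read as FDG fluorescence (ex 480/em 540) after 30 minutes.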
Potency is the fitted concentration of half-maximal effect.

Compound | Potency | activation
COc1ccc(/C=C/C(=O)Nc2ccc(S(=O)(=O)Nc3onc(C)c3C)cc2)cc1OC | inconclusive: 0.501 µM [activator, full curve, poor fit] | –
Cc1ccc(NC2=NCC(=O)N2Cc2cccs2)cc1C | inconclusive: 1.41 µM [activator, partial curve, poor fit] | –
CC(C)N1C(=O)C(=O)N(CC(=O)N(C)c2ccccc2)C1=O | inconclusive: 10 µM [activator, partial curve] | –
COc1ccccc1CNC(=O)C(NC(=O)Nc1ccccc1)C(C)C (stereo unspecified) | inconclusive: 3.55 µM [activator, single point] | –
Cc1ccc(CNC(=O)CC(C)S(=O)(=O)c2ccc3c(c2)NC(=O)C(C)S3)cc1 (stereo unspecified) | inconclusive: 5.01 µM [activator, single point] | –
Cc1cc(Br)ccc1OCCCCNCCO | inactive | –
CCN(CC)CCNC(=O)c1cc(-c2ccco2)nc2ccccc12 | inconclusive: 2.51 µM [activator, full curve, poor fit] | –
Cc1nnc(NC(=O)CSc2ncnc3scc(-c4ccccc4)c23)s1 | inconclusive: 3.55 µM [activator, partial curve, poor fit] | –
COc1cc(CNCCCN2CCOCC2)c(Br)cc1OCC(=O)Nc1ccccc1C | inactive | –
CCOc1ccc(C(=O)N2CCN(Cc3ccccc3)CC2)cc1 | inactive | –
CCCCC1S/C(=N/N=C/c2ccc(OC)cc2)N(Cc2ccc(OC)cc2)C1=O (stereo unspecified) | inconclusive: 20 µM [activator, partial curve, poor fit] | –
CCc1nc(=O)c(-c2ccccc2)c(C)n1-c1ccccc1 | inconclusive: 28.2 µM [activator, single point] | –
COCc1cc(C)nc(SCC[N+](C)(C)CC(=O)c2ccccc2)c1C#N | inactive | –
CCC1CN(C(=O)NCc2ccc(C)cc2)c2ccccc2O1 (stereo unspecified) | inconclusive: 14.1 µM [activator, partial curve, poor fit] | –
CCC(C)(C)NC(=O)C(c1ccccc1F)N(Cc1ccco1)C(=O)c1csnn1 (stereo unspecified) | inconclusive: 5.01 µM [activator, single point] | –
Cc1cccc(N2CCN(C(=O)c3cccc(N4CCCC4=O)c3)C(C)C2)c1 (stereo unspecified) | inconclusive: 28.2 µM [activator, single point] | –
Oc1ccc2ccccc2c1CN1CCOCC1 | inactive | –
CCC(COC(=O)Nc1cccc(C)c1)NC(=O)OCC(C)C (stereo unspecified) | inactive | –
CCCCCCOc1ccc(N2C(=O)CC(N3CCN(CCN=CC4=C(O)CC(C)(C)CC4=O)CC3)C2=O)cc1 (stereo unspecified) | inconclusive: 3.55 µM [activator, full curve, poor fit] | –
CC(=O)C1CCC2C3CCC4=CC(=O)C=CC4(C)C3C(=O)CC12C (stereo unspecified) | inactive | –
COc1ccc2[nH]c3c(=O)n(CCCC(=O)NC4CCC(C)CC4)c(=S)[nH]c3c2c1 (stereo unspecified) | inconclusive: 12.6 µM [activator, single point] | –
CCNC(=O)c1ccc2c(c1)C1C3CCC(C3)C1C(c1ccccc1)N2 (stereo unspecified) | inconclusive: 10 µM [activator, partial curve, poor fit] | –
CCOC(=O)c1cnn(Cc2ccc(C)cc2)c1N | inconclusive: 10 µM [activator, partial curve, poor fit] | –
O=c1[nH]nc(SCCS(=O)(=O)c2ccc(F)cc2)n1-c1ccccc1 | inactive | –

Compound | Potency | activation
CC(Oc1ccc(F)cc1)c1nnc(SCC(=O)N(c2ccccc2)C2CCS(=O)(=O)C2)o1 (stereo unspecified) | inconclusive: 2 µM [activator, full curve, poor fit] | –
O=C(O)/C=C\c1cccc(-n2nnnc2SCc2ccccc2F)c1 | inconclusive: 28.2 µM [activator, single point] | –
O=C(CSc1nnc(NC(=O)c2c(F)cccc2Cl)s1)Nc1ccccc1F | inconclusive: 12.6 µM [activator, single point] | –
CCOC(=O)c1[nH]cnc1C(=O)Nc1ccc(C)cc1 | inactive | –
CCOc1cccc(C(=O)Nc2cccc(-c3nnc(-c4ccc(C)cc4)o3)c2)c1 | inactive | –
Cc1ccccc1Nc1ncc(C#N)c(N)n1 | inconclusive: 28.2 µM [activator, single point] | –
Cn1c(Cn2c3ccccc3c3ccccc32)n[nH]c1=S | inactive | –
COc1ccc(OCC2NCCc3cc(OC)c(OC)cc32)cc1 (stereo unspecified) | inconclusive: 5.01 µM [activator, single point] | –
Cc1ccccc1N(C(=O)c1snc(C(N)=O)c1N)C(C(=O)NCC1CCCO1)c1ccc(F)cc1 (stereo unspecified) | inconclusive: 3.98 µM [activator, single point] | –
Cc1ccc(NS(=O)(=O)c2cccc(C(=O)O)c2)cc1S(=O)(=O)N1CCOCC1 | inconclusive: 28.2 µM [activator, partial curve, poor fit] | –
CC(c1nnc(SCC(=O)N(C)C2CCS(=O)(=O)C2)n1-c1ccccc1)N(C)C (stereo unspecified) | inconclusive: 2.51 µM [activator, single point] | –
Cc1nc2ccccc2c(=O)n1/N=C/c1ccc(N(C)C)cc1 | inactive | –
NS(=O)(=O)c1ccc(NCC2COc3ccccc3O2)c([N+](=O)[O-])c1 (stereo unspecified) | inconclusive: 3.55 µM [activator, single point] | –
CCC1(c2ccc(OC)cc2)NC(=O)N(CC(=O)NC2CCCCC2C)C1=O (stereo unspecified) | inconclusive: 28.2 µM [activator, single point] | –
CCCCC(=O)Nc1ccccc1C(=O)N1CCOCC1 | inconclusive: 5.01 µM [activator, single point] | –
CC1(C)CC(=O)c2cnc3nc4ccccc4n3c2C1 | inconclusive: 2.82 µM [activator, single point] | –
Cc1ccc([N+](=O)[O-])cc1NC(=O)CSc1nncc2ccccc12 | inconclusive: 31.6 µM [activator, partial curve, poor fit] | –
COc1ccc(S(=O)(=O)N(NC2=NS(=O)(=O)c3ccccc32)C(=O)C(C)C)cc1 | active: 2.51 µM | –
Cc1cc(C)n2nc(/C(C#N)=C/c3ccccn3)c(C#N)c2n1 | inactive | –
Cc1ccc(N(C(=O)c2cnccn2)C(C(=O)NC2CCCCC2)c2ccc(O)cc2)cc1 (stereo unspecified) | inactive | –
O=C(CSc1nnc(-c2ccncc2)n1Cc1ccco1)OC1CCCCC1 | inconclusive: 5.01 µM [activator, single point] | –
Cc1cc(C(F)F)n2nc(C(=O)Nc3cccc(S(=O)(=O)N4CCOCC4)c3)nc2n1 | inactive | –
NCCN1C(=O)S/C(=C\c2ccc3c(c2)OCO3)C1=O | inconclusive: 5.01 µM [activator, single point] | –
Cc1c(C)c2cc(Cl)c(O)c(CN3CCCC(C)C3)c2oc1=O (stereo unspecified) | inactive | –

Compound | Potency | activation
Cc1[nH]c2ccc3ncccc3c2c1C | inconclusive: 14.1 µM [activator, single point] | –
CCOc1ccccc1/C=N/Nc1nc(C)cc(=O)[nH]1 | inconclusive: 5.62 µM [activator, partial curve, poor fit] | –
COc1ccc(C(C)NC(=O)C23CC4CC(CC(C4)C2)C3)cc1OC (stereo unspecified) | inconclusive: 28.2 µM [activator, single point] | –
COc1ccc(N/C=C/C(=O)c2ccccc2)cc1 | inconclusive: 0.891 µM [activator, full curve, poor fit] | –
COc1ccc(CNS(=O)(=O)NCc2ccc(C)cc2)cc1 | inconclusive: 1 µM [activator, full curve, poor fit] | –
CS(=O)(=O)Nc1ccc(C2=NN(S(C)(=O)=O)C(c3ccccc3)C2)cc1 (stereo unspecified) | inactive | –
COCCCNCCCCOc1cccc(Br)c1 | inactive | –
Cc1cc(CC(=O)O)c2oc(-c3ccoc3)cc(=O)c2c1 | inconclusive: 12.6 µM [activator, partial curve, poor fit] | –
CCOc1ccc(Nc2cc(C)c3ccccc3n2)cc1 | inactive | –
CCOc1cc(N2CCOCC2)c(OCC)cc1NC(=O)Cc1cccc2ccccc12 | inactive | –
O=C(COc1ccccc1[N+](=O)[O-])Nc1cc(Cl)ccc1C(=O)O | inactive | –
CC(C)CN(C(=O)CSc1nc2ccccc2c(=O)[nH]1)c1c(N)n(CC(C)C)c(=O)[nH]c1=O | inconclusive: 5.01 µM [activator, single point] | –
Cc1ccccc1C(=O)O/N=C(\N)c1ccccc1 | inconclusive: 5.01 µM [activator, single point] | –
O=C1NC(=S)N/C1=C/c1cc([N+](=O)[O-])ccc1O | inactive | –
Cc1ccccc1C(=O)NNc1ccc(-c2csnn2)cc1 | inactive | –
Cc1cc(N2CCOCC2)nc2ccc(NC(=S)N3CCN(c4ccccc4)CC3)cc12 | inconclusive: 5.01 µM [activator, single point] | –
O=S(=O)(c1ccc(Cl)cc1)N1CCN(c2ncccn2)CC1 | inconclusive: 28.2 µM [activator, single point] | –
O=C(Nc1c(-c2ccccc2)nc2ccccn12)c1ccccc1F | inconclusive: 5.01 µM [activator, single point] | –
CCS(=O)(=O)Nc1ccc(Cc2ccc(NS(=O)(=O)CC)cc2)cc1 | – | inactive: -9.85% [at 7.66 µM]
CC(=O)c1ccc(NC(=O)C2C3C=CC(O3)C2C(=O)O)cc1 (stereo unspecified) | inconclusive: 14.1 µM [activator, partial curve, poor fit] | –
O=c1[nH]c2ccc(Cl)cc2c(-c2ccccc2)c1N1CCOCC1 | inconclusive: 5.01 µM [activator, single point] | –
O=C(O)CCCNC(=O)CCn1nnc2ccccc2c1=O | active: 11.2 µM | –
Cc1ccc(-c2nc3n(n2)Cc2ccccc2-3)cc1 | inactive | –

4 structures already listed, ordered by length of the SMILES, smallest number first.
Compound | Potency | activation
COCCCNCCCCOc1cccc(Br)c1 | inactive | –
Cc1ccccc1C(=O)O/N=C(\N)c1ccccc1 | inconclusive: 5.01 µM [activator, single point] | –
CCOc1ccccc1/C=N/Nc1nc(C)cc(=O)[nH]1 | inconclusive: 5.62 µM [activator, partial curve, poor fit] | –
COc1ccc(C(C)NC(=O)C23CC4CC(CC(C4)C2)C3)cc1OC (stereo unspecified) | inconclusive: 28.2 µM [activator, single point] | –
